# Whole data set: some 33,000 sequences, median “E-score (-0.5 to 0.5)” near -0.0034, cut for the highest 2% near 0.25. The list shows a part of the results.
# Target: T1, Yap3 (UniProt P38749)
# T1 sequence: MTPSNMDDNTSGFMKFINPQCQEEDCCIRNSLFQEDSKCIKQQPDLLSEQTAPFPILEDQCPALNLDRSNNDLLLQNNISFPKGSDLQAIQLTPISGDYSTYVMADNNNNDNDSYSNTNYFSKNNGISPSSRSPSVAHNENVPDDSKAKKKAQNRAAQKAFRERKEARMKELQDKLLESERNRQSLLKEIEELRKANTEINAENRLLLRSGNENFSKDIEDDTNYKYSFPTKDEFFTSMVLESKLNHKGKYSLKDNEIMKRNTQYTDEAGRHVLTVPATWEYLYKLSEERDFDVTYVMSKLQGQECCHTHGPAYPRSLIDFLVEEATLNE
# Assay: PBM E-score (8-mer binding enrichment) (E-score (-0.5 to 0.5)); higher = stronger / more preferred TF binding
# Conditions: protein concentration: 100 nM; construct: GST-full length
# In short: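 GST-tagged yeast TFs (full-length or DNA-binding domain) were made by PURExpress in vitro transcription/translation and applied at about 100-200 nM to universal all-10-mer Agilent arrays. The arrays were made double-stranded by primer extension, on fresh or once-stripped slides. Bound protein was detected with fluorescent anti-GST, and scans were normalised with masliner. Each ungapped eight-base word, pooled with its reverse complement, received an E-score (modified Wilcoxon-Mann-Whitney statistic) from the Universal PBM Analysis Suite.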
row,Sequence,PBM E-score
1,AGAATATG,0.224
2,GCCGTCAC,-0.0282
3,CTATTCTA,0.15
4,AACTTCCT,0.0408
5,CAGTAGAA,0.138
6,CGGGTGAC,-0.211
7,GCGACGCC,0.00425
8,AATTGCGG,-0.0342
9,GTTCGAGA,0.0678
10,ATAAAGCC,-0.0888
11,ACTGGGGG,-0.324
12,CACAAGGA,0.00224
13,CCCTATAG,-0.057
14,GTAGTAAC,-0.0227
15,AACGCCGC,0.0161
16,CTGAGCAG,-0.0643
17,CTTACAAC,0.0598
18,CGTTTACC,0.15
19,GATCCAAC,-0.135
20,AGGTATCC,0.048
21,ACATACAC,0.139
22,CAAGAATG,0.0283
23,GATAACAC,0.195
24,CAGAACTC,-0.041
25,AATGATGG,0.203

row,Sequence,PBM E-score
1,AATTCCCG,-0.0337
2,ATGGTGAC,-0.232
3,AGGGACTA,-0.0104
4,CTTCATCA,0.0592
5,CGATAGGC,-0.0751
6,ATCAGGGC,-0.111
7,GGAGGAAA,-0.0738
8,GTGCTGCA,0.0289
9,GCGTGCGA,-0.144
10,GCTGACGA,0.123
11,CCCGGAGA,-0.117
12,CGTGAAAA,0.22
13,AGGAGGGA,-0.179
14,GTTTCAAA,0.103
15,AGGTCGCA,-0.0369
16,CGTAGTGA,-0.0881
17,ACGGCAGC,-0.018
18,ACATACTC,0.0688
19,AATGTAGC,0.0687
20,GACACCAC,-0.22
21,AGATAAAT,0.219
22,ATTGGGTG,0.174
23,ATTTTGCC,0.104
24,CACGCACG,-0.123
25,ACAGAGAT,0.0805

row,Sequence,PBM E-score
1,GTCCGGAA,-0.042
2,ACTAGGCA,-0.0459
3,CATCGTGG,-0.112
4,ACCGTGGG,-0.322
5,TGCAGTAA,0.116
6,AAAATCAA,0.19
7,AACACCGC,-0.0117
8,GGAACGCC,-0.131
9,ACGGCCTG,-0.215
10,CCACCTGA,0.105
11,ATTTGCAA,0.125
12,ATCACTAC,-0.073
13,TGTCTTAA,0.102
14,AGTTCGGA,0.0398
15,TAAAGAGA,0.108
16,GTCACTCA,0.104
17,CAGGCGGA,0.081
18,GCAGCTCA,-0.187
19,TGATAACA,0.258
20,CAGCGATC,-0.00682
21,ACTGCGTG,-0.215
22,GCAATCTA,0.0687
23,CCTATCTA,-0.118
24,AAAACCAG,0.112
25,ATGGAATA,0.248

row,Sequence,PBM E-score
1,CCTAGAAC,-0.00465
2,CGCCTCAG,-0.135
3,ATTTGATC,-0.0998
4,AATACCCC,-0.134
5,GATTGGAC,0.0901
6,TAATCCCA,0.0293
7,ATCCGTCG,0.0317
8,GCAACCAC,0.0149
9,ACGTTGCC,-0.0696
10,ACCCATTG,-0.136
11,CTGGTCTC,-0.304
12,GAACTGAC,-0.0453
13,ACAACGCA,0.0858
14,CCACTAAA,0.0547
15,AGTTGGAG,-0.0405
16,AATATCTC,0.263
17,ATATTGCG,0.145
18,GTCCTCGA,-0.0718
19,ACTCATTA,0.186
20,ACAGAGCA,0.0953
21,AGCAACAA,0.0864
22,ACGGTGAT,0.00964
23,CAACGCGC,0.249
24,GGATAAAC,0.0509
25,AAACTAGC,0.0132

# Some of the entries so far, as tab-separated lines.
row	Sequence	PBM E-score
15	AGTTGGAG	-0.0405
17	ATATTGCG	0.145

# (further entries)

row,Sequence,PBM E-score
1,AAAGCACA,0.152
2,AACCTGCA,0.037
3,GGTTACAA,0.232
4,AACGGGCG,-0.00658
5,AATACATA,0.199
6,AAGAAATC,-0.0352
7,GAGAATAA,0.193
8,CCCCGTGA,-0.239
9,CGCAGGTC,-0.353
10,GAGGGGTA,-0.191
11,GCTCATGA,-0.0127
12,AGAGCGAA,0.0221
13,CATTAGAC,-0.252
14,ATACCTAA,0.273
15,ATACGCCG,-0.0794
16,GGGTTTAC,0.0092
17,TATAAATA,0.301
18,GATCTCAA,0.0691
19,ACTGGCAC,-0.24
20,CTGAGACC,-0.164
21,GGATGGCC,-0.268
22,AGTGCCAA,-0.128
23,AGCGAGTA,0.238
24,AATAGTGA,0.0687
25,AGGGAGTG,-0.172

row,Sequence,PBM E-score
1,AGCACGTG,0.127
2,AGAGGCAG,-0.122
3,ACTAGCCC,-0.0674
4,TCATCGCA,-0.0781
5,CCAGGAAG,-0.0698
6,GCTAGTAC,-0.00882
7,AACTGTAT,0.0673
8,CCTCATAG,-0.029
9,AGAGCCTC,-0.195
10,CTGGCTCC,-0.223
11,CAGAGATA,0.0948
12,GTTCCTTA,0.00634
13,ACGGGAAG,-0.198
14,CAGAGTAA,-0.0263
15,AATGCGTC,-0.027
16,CGGCTACC,-0.0818
17,ACAGCCAT,-0.0294
18,AACTCCGT,0.0734
19,AAGAAAGC,0.0406
20,AGTTCGAT,0.124
21,AATGGGGG,-0.279
22,AAGGGACC,0.0031
23,AACGAAAT,0.221
24,AGGCAACT,0.0833
25,TATCCTCA,0.176

row,Sequence,PBM E-score
1,AGAATGGC,-0.0555
2,ACAACACA,0.122
3,CAACCGAA,0.0856
4,GCGGGTAC,-0.102
5,ACGGTAAG,0.066
6,GCAGTACC,-0.0583
7,CAGGGCAC,-0.137
8,AACTCAAA,0.187
9,AAGCGACG,-0.185
10,TACACGGA,0.175
11,GCCACAGC,-0.146
12,ATCTGTAG,-0.103
13,TCAGATGA,0.159
14,CGTAAGCC,0.212
15,GTAGGTGA,-0.137
16,CTCGACTA,-0.0539
17,CGATGGCC,-0.0485
18,AGGGGCCA,-0.224
19,AGTAATAG,0.207
20,GCGCTCTA,-0.00542
21,TAACGCGA,0.0719
22,CCGGTAAG,-0.057

# Retrieved one by one from the entries so far:
row,Sequence,PBM E-score
17,CGATGGCC,-0.0485
16,CTCGACTA,-0.0539
14,CGTAAGCC,0.212
10,TACACGGA,0.175
